Laboratory results from PMC2901200.
Results are given in words; binding and its absence hold for the method and conditions named. In cells and extracts the contact can be indirect. Some entries that bind do so weakly or less than the wild type.

By UniProt entry, the sequences of proteins in these tests, tags left out. Where a name states a change or a piece, a line headed by the entry shows the natural chain unless it says otherwise. Chains listed by the source or under a name are the forms on record and can include a tag or linker. Residues count along the entry.
UniProt Q2MHE5: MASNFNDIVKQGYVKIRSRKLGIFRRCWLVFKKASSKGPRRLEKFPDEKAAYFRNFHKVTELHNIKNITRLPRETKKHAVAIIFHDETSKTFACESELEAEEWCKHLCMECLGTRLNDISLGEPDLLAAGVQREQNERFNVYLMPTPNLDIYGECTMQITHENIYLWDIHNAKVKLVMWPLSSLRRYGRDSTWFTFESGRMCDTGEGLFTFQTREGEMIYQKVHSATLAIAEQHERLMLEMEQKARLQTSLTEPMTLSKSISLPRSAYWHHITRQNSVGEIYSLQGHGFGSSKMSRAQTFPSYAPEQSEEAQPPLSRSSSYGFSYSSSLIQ
UniProt Q6PKX4: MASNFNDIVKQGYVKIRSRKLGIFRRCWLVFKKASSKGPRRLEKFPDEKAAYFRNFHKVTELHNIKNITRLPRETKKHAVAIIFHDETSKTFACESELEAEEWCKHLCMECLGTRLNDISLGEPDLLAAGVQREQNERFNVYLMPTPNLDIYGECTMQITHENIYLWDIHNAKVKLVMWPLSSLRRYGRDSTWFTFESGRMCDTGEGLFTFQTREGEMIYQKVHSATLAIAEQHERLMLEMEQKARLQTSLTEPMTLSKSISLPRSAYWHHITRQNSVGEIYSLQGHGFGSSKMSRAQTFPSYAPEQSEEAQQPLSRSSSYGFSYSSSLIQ
UniProt Q6VNS1, residues 32-825: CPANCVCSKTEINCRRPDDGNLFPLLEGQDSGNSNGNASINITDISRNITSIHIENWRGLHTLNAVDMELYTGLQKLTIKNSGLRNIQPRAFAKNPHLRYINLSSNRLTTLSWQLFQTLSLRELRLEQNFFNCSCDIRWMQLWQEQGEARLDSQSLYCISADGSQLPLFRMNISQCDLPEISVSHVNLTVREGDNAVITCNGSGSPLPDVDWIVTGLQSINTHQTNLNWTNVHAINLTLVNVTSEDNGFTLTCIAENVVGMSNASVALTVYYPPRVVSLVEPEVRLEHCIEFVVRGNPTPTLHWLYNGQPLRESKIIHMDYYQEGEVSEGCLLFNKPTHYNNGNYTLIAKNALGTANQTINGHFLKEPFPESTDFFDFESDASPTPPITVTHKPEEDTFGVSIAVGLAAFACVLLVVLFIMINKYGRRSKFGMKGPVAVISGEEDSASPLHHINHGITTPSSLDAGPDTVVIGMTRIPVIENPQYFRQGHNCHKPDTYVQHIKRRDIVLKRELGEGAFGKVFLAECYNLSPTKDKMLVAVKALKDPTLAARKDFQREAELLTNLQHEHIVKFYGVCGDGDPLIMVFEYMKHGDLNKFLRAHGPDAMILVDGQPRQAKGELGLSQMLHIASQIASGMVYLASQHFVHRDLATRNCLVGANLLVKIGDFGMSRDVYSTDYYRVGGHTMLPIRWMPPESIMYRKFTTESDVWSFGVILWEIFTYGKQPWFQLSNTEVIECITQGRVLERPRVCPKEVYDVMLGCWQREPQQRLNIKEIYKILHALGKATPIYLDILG
V5-tagged TrkC receptor, wild type (Q16288-3, form named): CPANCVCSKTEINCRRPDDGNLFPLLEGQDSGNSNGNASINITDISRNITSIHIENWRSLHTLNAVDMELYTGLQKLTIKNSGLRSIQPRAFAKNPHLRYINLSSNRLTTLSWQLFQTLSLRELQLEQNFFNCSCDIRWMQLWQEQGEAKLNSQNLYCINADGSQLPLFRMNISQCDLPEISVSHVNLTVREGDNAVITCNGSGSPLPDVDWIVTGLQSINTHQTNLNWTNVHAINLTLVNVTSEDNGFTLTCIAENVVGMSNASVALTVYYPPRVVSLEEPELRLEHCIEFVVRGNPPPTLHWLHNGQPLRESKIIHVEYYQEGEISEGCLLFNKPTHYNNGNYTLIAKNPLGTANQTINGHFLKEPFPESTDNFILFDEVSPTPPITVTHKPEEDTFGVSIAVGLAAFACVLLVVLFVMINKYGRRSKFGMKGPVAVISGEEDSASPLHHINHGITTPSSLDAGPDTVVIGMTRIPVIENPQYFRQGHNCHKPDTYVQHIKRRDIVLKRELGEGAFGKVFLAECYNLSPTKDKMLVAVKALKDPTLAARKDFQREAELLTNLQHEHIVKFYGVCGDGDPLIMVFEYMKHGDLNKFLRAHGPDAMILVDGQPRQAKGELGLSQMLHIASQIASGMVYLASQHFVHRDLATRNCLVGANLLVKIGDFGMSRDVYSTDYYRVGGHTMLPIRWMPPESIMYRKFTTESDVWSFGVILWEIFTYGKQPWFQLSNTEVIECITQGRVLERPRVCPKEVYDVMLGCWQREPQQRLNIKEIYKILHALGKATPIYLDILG

Experiments:
[1] = target: Dok6, endogenous in E18.5 mouse brain and cortex neurons (mouse (endogenous in E18.5 ICR mouse brain)) (UniProt Q2MHE5); assay: co-IP; E18.5 mouse cortex neurons cultured in empty DMEM for 24 h, without NT-3; lysates immunoprecipitated with anti-Dok6, anti-TrkC blot
[2] = target: Dok6, endogenous in E18.5 mouse brain and cortex neurons (mouse (endogenous in E18.5 ICR mouse brain)) (UniProt Q2MHE5); assay: co-IP; homogenates of E18.5 ICR mouse brains, precleared with rabbit IgG; immunoprecipitated with anti-Dok6 or IgG, protein A-agarose, 4°C; anti-TrkC blot
[3] = target: Dok6, endogenous in E18.5 mouse brain and cortex neurons (mouse (endogenous in E18.5 ICR mouse brain)) (UniProt Q2MHE5); assay: co-IP; E18.5 mouse cortex neurons cultured in empty DMEM for 24 h, then treated with 100 ng/ml NT-3 for 10 min; lysates immunoprecipitated with anti-Dok6, anti-TrkC blot
Flag-tagged Dok6 (human) = Flag-tagged Dok6 (human) (UniProt Q6PKX4); assay: co-IP; HEK293 cotransfected with Flag-Dok6 and V5-TrkC, treated with or without 100 ng/ml NT-3 for 10 min; anti-Flag immunoprecipitation, anti-V5 blot

Substance	binding [1]	binding [2]	binding [3]	binding (Flag-tagged Dok6 (human))
TrkC receptor, endogenous in E18.5 mouse brain and cortex neurons (from UniProt Q6VNS1 32-825)	no binding (condition: without NT-3 stimulation)	binds	binds	–
V5-tagged TrkC receptor, wild type (from UniProt Q16288-3 32-825)	–	–	–	binds
